Drawing on US20050223417A1, this text covers binding for one substance.

Sequences of proteins named here, by UniProt entry; tags and fusion partners are left off. A change or cut given only in a name is not applied to a line headed by its entry.
UniProt P51943: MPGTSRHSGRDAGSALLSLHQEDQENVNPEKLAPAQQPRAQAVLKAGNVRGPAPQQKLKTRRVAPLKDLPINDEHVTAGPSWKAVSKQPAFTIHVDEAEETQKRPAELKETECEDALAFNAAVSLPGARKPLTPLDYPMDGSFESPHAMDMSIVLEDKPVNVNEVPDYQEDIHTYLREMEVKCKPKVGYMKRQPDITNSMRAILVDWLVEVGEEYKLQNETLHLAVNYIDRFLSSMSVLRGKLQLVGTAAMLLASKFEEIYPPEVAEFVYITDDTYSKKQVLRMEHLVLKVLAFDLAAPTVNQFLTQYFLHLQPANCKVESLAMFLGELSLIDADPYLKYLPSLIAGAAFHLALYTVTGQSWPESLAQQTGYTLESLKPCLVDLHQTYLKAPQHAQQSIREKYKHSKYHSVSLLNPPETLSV
UniProt P46414: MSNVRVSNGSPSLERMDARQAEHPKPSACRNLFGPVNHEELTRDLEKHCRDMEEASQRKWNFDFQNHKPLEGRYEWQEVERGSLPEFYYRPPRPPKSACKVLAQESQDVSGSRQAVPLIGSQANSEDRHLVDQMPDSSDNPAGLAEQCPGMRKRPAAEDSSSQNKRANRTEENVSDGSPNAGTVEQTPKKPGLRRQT

These are yes or no findings as the source states them, for the method shown. In cells and extracts the contact can be indirect. Some results given as binding are weak or reduced against the parent protein; the word gives no strength.

The target of this assay is cyclin A (mouse) (UniProt P51943). Put plainly: association in extracts of serum-stimulated p27^T187A MEFs in late S/G2; method not described (presumably co-immunoprecipitation and immunoblot).

On to “p27^T187A protein (mouse p27^Kip1 with threonine 187 changed to alanine) (from UniProt P46414 1-197)”, for which the binding result was “binds”.
